Data: publication PMC11920102
These are yes or no findings as the source states them, for the method shown.

Target: T1, FKBP-EndoB1^CT (Residues 269–365) (Homo sapiens) (UniProt Q9Y371)
T1 sequence: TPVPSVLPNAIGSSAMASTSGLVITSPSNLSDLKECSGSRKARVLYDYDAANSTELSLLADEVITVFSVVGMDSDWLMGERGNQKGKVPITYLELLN
Assay: rapamycin-induced rerouting to the OMM (live-cell confocal imaging); FKBP-tagged bait rerouted to the OMM-targeted FRB with rapamycin in live cells; relocalisation of the fluorescently tagged prey followed in real time

**Q.** Which binding does the source give for Dnm2 (Homo sapiens, Isoform 2)-mEGFP here?
**A.** The binding was “no binding”.
